Results published in patent US20240390497A1 (Stanford University, published 2024).
Results are given in words; binding and its absence hold for the method and conditions named. Some results given as binding are weak or reduced against the parent protein; the word gives no strength.

T1: human CD93/Fc fusion protein (human, UniProt Q9NPY3 22-580, limits assumed)
T1 construct: It was biotinylated or DyLight 650-conjugated for staining; also called CD93-Fc chimera protein; CD93-Fc biotinylated protein; not shown: Fc part
T1 sequence (looked up): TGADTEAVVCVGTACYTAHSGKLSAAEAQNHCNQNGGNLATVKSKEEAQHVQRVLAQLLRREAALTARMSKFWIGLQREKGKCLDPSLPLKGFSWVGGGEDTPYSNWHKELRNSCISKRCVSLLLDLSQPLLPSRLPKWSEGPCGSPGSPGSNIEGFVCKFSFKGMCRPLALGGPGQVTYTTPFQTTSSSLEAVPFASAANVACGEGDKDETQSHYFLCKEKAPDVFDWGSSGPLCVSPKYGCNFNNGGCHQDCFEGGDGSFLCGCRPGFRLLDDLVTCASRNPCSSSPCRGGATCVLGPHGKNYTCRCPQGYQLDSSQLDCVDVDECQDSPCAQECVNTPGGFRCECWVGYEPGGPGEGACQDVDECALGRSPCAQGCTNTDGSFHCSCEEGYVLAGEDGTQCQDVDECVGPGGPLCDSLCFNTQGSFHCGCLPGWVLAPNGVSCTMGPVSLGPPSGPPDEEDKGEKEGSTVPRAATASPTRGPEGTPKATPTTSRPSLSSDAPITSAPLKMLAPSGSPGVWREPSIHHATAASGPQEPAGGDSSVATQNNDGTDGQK


Tests used:
[1] = target: T1, human CD93/Fc fusion protein; test: ELISA, human CD93/Fc coated on plate
[2] = target: T1, human CD93/Fc fusion protein; test: ELISA on coated human CD93/Fc, HRP anti-human kappa secondary, OD490
Procedure: FIGS. 2A-2O are sets of graphs illustrating that CD93-CAR T cells exert anti-leukemic effects against AML in vitro. FIG. 2A is a bar chart showing that humanized (“HuF11-G1” and “HuF11-G1 TM”) and chimeric F11 (“ChF11-G1”) monoclonal antibodies bind human CD93 with similar affinity. Human CD93/Fc fusion protein was coated in a 96-well plate and different concentrations of the antibodies as indicated were added. HRP-conjugated anti-human Kappa antibody was used as a secondary antibody. CD93 binding activity was measured by reading signals at OD490 […]. FIG. 2B is a cartoon showing the structure of CD93-28z and CD93-BBz CARs. […] Cells were fed with new media every 2-3 days, analyzed for transduction efficiency and phenotype on day 10-11, and processed for downstream experiments. FIG. 2D is a bar graph showing comparing transduction efficiency for each of aCAR molecule and control (“Mock”), measured by flow cytometry on day 10 after T cell activation. […] FIG. 2F is a set of graphs comparing expression levels of markers of T cell activation/exhaustion, including LAG-3, PD-1, TIM-3, and CD39, measured by flow cytometry on day 10 after T cell activation, prior to downstream experiments. […] FIG. 2G is a graph showing CD93 expression on AML cell lines, measured by flow cytometry after staining with biotinylated F11 antibody followed by streptavidin-APC. […]

[3] = target: T1, human CD93/Fc fusion protein; test: ELISA, human CD93/Fc coated on plate, HRP anti-human Kappa secondary, OD490

binding [1]	binding [2]	binding [3]	Binder
binds	binds	binds	humanized F11 monoclonal antibody (HuF11-G1) (antibody, V domains shown, also called humanized F11 antibody) VH: QVQLVQSGAEVKKPGASVKVSCKASGYTFTDYHMDWVKQAPGQGLEWIGDIDPYNGDTVFNQKFKGKATMTRDTSISTAYMELSRLRSDDTAVYYCTRGGDYWGQGTLVTVSS VL: DIVMTQTPLSLSVTPGQPASISCRSSQTLVHSNGNTYLHWYLQKPGQPPQLLIYKVSNRFSGVPDRFSGSGSGTDFTLKISRVEAEDVGVYFCSQSTHVPFTFGQGTKLEIK
binds	binds	binds	humanized F11 monoclonal antibody (HuF11-G1 TM) (antibody, V domains shown, also called humanized F11 antibody) VH: QVQLVQSGAEVKKPGASVKVSCKASGYTFTDYHMDWVKQAPGQGLEWIGDIDPYNGDTVFNQKFKGKATMTRDTSISTAYMELSRLRSDDTAVYYCTRGGDYWGQGTLVTVSS VL: DIVMTQTPLSLSVTPGQPASISCRSSQTLVHSNGNTYLHWYLQKPGQPPQLLIYKVSNRFSGVPDRFSGSGSGTDFTLKISRVEAEDVGVYFCSQSTHVPFTFGQGTKLEIK
